Results are given in words; binding and its absence hold for the method and conditions named. In cells and extracts the contact can be indirect. Some entries that bind do so weakly or less than the wild type. For some of these results: Sequences can lack the tags named with a protein.
T1: EGFP-WFS1 (UniProt O76024)
T1 sequence: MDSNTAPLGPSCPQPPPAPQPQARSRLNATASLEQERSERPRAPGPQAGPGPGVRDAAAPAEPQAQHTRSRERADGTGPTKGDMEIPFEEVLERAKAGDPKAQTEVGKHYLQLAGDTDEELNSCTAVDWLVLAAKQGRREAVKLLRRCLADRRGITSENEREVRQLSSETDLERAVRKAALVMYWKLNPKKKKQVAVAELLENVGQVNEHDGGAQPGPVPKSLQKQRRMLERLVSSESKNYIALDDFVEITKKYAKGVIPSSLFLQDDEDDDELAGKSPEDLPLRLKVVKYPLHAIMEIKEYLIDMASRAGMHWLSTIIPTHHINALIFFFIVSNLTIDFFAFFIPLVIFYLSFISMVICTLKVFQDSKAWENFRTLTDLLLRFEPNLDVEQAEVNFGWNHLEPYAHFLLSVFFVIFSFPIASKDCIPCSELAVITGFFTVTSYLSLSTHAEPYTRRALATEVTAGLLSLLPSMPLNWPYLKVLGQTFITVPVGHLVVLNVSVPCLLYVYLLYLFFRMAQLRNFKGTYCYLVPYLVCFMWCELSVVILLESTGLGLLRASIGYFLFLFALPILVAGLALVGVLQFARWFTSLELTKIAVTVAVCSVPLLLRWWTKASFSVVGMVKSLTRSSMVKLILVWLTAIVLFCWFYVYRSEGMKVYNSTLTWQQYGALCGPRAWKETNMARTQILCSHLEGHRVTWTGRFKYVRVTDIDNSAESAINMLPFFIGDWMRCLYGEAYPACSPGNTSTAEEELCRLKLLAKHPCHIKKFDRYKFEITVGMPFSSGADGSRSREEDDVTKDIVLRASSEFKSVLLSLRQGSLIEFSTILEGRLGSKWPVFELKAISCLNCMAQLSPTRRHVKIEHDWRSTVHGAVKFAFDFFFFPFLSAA

By UniProt entry, the sequences of proteins in these tests, tags left out.
UniProt E9Q401: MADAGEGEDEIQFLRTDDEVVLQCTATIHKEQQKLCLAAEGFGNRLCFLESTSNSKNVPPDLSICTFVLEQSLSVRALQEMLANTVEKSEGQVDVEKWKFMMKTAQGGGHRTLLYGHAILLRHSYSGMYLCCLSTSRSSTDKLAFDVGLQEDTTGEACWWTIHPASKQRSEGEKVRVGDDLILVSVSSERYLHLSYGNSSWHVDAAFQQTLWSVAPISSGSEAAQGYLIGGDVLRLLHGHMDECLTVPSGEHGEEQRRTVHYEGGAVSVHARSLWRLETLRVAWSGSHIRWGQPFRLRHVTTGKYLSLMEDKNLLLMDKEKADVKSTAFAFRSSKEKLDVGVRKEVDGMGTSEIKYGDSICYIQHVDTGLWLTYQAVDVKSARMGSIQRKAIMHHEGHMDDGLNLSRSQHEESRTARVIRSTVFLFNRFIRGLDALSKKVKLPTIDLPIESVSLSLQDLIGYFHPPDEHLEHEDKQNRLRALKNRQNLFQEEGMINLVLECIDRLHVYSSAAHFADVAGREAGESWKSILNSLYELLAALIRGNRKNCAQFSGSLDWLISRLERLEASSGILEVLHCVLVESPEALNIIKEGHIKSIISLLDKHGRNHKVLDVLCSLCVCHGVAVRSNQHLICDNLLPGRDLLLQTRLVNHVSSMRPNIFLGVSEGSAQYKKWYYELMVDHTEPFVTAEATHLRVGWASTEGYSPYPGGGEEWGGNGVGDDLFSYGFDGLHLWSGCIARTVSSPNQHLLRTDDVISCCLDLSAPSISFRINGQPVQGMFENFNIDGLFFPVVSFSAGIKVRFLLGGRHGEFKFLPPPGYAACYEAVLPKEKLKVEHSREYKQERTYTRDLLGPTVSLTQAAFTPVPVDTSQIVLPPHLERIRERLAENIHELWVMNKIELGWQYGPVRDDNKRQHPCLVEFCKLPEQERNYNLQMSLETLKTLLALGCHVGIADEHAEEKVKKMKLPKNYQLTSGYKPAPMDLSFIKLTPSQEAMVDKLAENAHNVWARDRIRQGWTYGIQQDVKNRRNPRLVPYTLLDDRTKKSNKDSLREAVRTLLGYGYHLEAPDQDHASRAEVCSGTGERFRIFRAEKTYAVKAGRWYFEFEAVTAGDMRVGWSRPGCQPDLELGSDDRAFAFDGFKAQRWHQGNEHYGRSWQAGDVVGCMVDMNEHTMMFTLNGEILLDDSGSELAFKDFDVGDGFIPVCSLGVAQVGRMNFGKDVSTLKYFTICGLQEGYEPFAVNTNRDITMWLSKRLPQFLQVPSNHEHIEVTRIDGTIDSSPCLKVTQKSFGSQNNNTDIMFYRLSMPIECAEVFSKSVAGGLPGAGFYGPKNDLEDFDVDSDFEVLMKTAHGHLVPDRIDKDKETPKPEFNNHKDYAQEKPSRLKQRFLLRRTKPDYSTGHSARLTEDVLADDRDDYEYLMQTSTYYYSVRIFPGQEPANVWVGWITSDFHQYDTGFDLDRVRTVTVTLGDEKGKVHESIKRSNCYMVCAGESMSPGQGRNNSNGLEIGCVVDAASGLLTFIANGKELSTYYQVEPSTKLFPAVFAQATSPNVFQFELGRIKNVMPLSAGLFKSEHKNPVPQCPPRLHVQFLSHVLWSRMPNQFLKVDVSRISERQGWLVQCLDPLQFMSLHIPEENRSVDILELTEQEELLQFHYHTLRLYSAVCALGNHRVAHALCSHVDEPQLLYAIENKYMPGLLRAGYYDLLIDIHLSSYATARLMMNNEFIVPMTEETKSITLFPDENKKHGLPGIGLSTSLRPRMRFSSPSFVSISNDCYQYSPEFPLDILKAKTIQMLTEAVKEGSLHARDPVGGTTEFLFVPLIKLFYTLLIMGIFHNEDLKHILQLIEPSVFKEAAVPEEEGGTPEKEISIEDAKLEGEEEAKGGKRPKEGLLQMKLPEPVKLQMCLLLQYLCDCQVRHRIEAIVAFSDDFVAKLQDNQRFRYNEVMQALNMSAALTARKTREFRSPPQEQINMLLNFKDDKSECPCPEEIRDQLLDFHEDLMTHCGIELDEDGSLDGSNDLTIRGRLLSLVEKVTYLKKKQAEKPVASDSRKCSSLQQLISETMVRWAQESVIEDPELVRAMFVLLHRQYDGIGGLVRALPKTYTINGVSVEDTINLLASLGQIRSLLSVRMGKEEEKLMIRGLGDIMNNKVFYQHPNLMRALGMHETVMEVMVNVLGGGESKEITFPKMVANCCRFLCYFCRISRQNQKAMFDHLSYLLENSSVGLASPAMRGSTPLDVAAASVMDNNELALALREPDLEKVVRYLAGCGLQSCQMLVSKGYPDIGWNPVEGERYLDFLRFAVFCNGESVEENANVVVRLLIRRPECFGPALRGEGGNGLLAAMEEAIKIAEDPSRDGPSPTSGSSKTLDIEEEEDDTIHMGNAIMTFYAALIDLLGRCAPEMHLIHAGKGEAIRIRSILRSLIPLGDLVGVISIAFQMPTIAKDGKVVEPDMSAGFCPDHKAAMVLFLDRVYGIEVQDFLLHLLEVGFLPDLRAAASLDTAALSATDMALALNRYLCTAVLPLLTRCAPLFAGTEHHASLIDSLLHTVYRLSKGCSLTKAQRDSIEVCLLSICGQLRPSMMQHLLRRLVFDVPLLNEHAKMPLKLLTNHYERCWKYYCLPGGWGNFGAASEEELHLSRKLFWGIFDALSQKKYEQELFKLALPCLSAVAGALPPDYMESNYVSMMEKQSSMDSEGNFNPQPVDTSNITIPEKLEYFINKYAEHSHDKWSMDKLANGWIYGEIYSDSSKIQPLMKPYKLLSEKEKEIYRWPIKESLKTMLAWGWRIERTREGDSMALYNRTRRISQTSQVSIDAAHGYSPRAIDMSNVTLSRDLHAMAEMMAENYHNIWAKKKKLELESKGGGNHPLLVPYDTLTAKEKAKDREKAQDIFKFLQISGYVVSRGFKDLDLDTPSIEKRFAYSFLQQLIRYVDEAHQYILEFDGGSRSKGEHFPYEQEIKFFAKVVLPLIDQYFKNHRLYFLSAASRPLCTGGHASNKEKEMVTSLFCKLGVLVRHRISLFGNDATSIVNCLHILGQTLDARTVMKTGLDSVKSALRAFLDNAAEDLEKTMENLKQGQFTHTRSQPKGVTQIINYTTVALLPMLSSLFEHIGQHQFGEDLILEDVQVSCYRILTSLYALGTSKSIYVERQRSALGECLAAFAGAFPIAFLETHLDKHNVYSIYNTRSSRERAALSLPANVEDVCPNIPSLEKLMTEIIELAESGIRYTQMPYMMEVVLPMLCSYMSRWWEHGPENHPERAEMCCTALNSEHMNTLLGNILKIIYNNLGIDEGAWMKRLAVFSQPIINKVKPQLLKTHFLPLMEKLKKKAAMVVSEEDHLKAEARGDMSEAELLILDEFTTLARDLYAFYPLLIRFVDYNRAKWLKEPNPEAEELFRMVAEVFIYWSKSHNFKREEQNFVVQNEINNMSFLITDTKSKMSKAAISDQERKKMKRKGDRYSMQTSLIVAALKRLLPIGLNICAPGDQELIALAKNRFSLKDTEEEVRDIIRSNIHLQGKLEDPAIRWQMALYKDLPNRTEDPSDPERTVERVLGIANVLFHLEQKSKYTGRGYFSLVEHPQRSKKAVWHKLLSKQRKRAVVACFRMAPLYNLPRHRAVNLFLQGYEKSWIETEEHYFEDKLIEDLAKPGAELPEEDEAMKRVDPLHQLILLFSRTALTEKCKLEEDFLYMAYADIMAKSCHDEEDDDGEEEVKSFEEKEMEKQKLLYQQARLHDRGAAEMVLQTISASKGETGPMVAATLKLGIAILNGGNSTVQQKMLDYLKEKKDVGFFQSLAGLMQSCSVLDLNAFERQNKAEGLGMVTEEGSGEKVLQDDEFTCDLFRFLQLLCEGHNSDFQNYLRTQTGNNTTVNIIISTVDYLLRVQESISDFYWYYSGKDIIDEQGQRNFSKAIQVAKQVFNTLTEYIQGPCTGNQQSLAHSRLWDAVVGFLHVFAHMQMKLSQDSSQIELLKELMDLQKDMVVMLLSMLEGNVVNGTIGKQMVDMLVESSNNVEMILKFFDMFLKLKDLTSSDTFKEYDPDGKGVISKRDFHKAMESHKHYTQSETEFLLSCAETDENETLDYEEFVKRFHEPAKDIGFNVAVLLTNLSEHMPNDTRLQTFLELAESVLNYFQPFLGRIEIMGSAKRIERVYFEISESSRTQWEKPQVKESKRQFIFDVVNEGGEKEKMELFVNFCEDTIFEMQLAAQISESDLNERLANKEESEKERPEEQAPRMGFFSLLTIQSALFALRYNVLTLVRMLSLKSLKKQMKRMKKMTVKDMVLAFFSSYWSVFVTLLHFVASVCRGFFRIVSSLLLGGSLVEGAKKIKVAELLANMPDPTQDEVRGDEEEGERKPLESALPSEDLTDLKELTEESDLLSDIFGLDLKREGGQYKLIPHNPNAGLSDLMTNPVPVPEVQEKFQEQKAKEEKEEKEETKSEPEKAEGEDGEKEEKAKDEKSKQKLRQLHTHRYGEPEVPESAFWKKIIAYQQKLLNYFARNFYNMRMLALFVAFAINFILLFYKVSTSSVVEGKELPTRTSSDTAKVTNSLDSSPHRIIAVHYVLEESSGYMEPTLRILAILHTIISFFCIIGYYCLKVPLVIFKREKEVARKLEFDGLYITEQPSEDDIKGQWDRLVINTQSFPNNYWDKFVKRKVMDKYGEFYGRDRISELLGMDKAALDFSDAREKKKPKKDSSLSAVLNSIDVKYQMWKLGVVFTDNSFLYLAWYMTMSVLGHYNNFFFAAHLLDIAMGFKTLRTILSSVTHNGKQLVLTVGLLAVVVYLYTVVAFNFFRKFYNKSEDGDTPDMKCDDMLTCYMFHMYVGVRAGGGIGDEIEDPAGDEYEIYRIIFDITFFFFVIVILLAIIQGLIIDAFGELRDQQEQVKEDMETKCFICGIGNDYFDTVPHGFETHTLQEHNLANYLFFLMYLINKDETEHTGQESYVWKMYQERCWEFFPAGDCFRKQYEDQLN

T2: endogenous CISD2 (HEK293) (human (endogenous in HEK293)) (UniProt Q8N5K1)
T2 sequence: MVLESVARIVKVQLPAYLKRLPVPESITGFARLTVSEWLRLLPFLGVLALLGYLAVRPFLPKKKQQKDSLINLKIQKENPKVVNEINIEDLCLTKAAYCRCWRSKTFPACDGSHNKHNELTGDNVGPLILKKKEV


Tests used:
EGFP-WFS1 = target: T1, EGFP-WFS1; experiment: co-IP; EGFP-WFS1 immunoprecipitated from transfected HEK293 cell lysate with GFP-Trap (Proteintech protocol); CISD2-myc detected with anti-myc antibodies
[1] = target: T2, endogenous CISD2 (HEK293) (human (endogenous in HEK293)); experiment: co-IP; non-transfected HEK293 cell lysate; CISD2 immunoprecipitated with mouse anti-CISD2 on rec-Protein G-Sepharose 4B beads; WFS1 detected with rabbit anti-WFS1
[2] = target: RyR2 (mouse brain) (mouse (endogenous in whole brain)) (UniProt E9Q401); experiment: co-IP; whole brain lysates of six-month-old mice; RyR2 immunoprecipitated with Protein G Dynabeads; WFS1 and CISD2 assessed in the immunocomplex

Binder	binding [2]	further results
CISD2-myc (protein, UniProt Q8N5K1 1-135) MVLESVARIVKVQLPAYLKRLPVPESITGFARLTVSEWLRLLPFLGVLALLGYLAVRPFLPKKKQQKDSLINLKIQKENPKVVNEINIEDLCLTKAAYCRCWRSKTFPACDGSHNKHNELTGDNVGPLILKKKEV		binding (EGFP-WFS1): binds
endogenous WFS1 (HEK293) (protein, UniProt O76024 1-890) MDSNTAPLGPSCPQPPPAPQPQARSRLNATASLEQERSERPRAPGPQAGPGPGVRDAAAPAEPQAQHTRSRERADGTGPTKGDMEIPFEEVLERAKAGDPKAQTEVGKHYLQLAGDTDEELNSCTAVDWLVLAAKQGRREAVKLLRRCLADRRGITSENEREVRQLSSETDLERAVRKAALVMYWKLNPKKKKQVAVAELLENVGQVNEHDGGAQPGPVPKSLQKQRRMLERLVSSESKNYIALDDFVEITKKYAKGVIPSSLFLQDDEDDDELAGKSPEDLPLRLKVVKYPLHAIMEIKEYLIDMASRAGMHWLSTIIPTHHINALIFFFIVSNLTIDFFAFFIPLVIFYLSFISMVICTLKVFQDSKAWENFRTLTDLLLRFEPNLDVEQAEVNFGWNHLEPYAHFLLSVFFVIFSFPIASKDCIPCSELAVITGFFTVTSYLSLSTHAEPYTRRALATEVTAGLLSLLPSMPLNWPYLKVLGQTFITVPVGHLVVLNVSVPCLLYVYLLYLFFRMAQLRNFKGTYCYLVPYLVCFMWCELSVVILLESTGLGLLRASIGYFLFLFALPILVAGLALVGVLQFARWFTSLELTKIAVTVAVCSVPLLLRWWTKASFSVVGMVKSLTRSSMVKLILVWLTAIVLFCWFYVYRSEGMKVYNSTLTWQQYGALCGPRAWKETNMARTQILCSHLEGHRVTWTGRFKYVRVTDIDNSAESAINMLPFFIGDWMRCLYGEAYPACSPGNTSTAEEELCRLKLLAKHPCHIKKFDRYKFEITVGMPFSSGADGSRSREEDDVTKDIVLRASSEFKSVLLSLRQGSLIEFSTILEGRLGSKWPVFELKAISCLNCMAQLSPTRRHVKIEHDWRSTVHGAVKFAFDFFFFPFLSAA		binding [1]: binds
endogenous WFS1 (mouse brain) (protein, UniProt P56695 1-890) MNSGTPPPSPSGPPPPPAPQPQARARLNATASLEQDKIEPPRAPRPQADPSAGRSAGEAAAPEPRAPQTGSREETDRAGPMKADVEIPFEEVLEKAKAGDPKAQTEVGKHYLRLANDADEELNSCSAVAWLILAAKQGRREAVKLLRRCLADRKGITSENEAEVKQLSSETDLERAVRKAALVMYWKLNPKKKKQVAVSELLENVGQVNEQDGGAQPGPVPKSLQKQRRMLERLVSSESKNYIALDDFVELTKKYAKGIIPTNLFLQDEDEDEDELAGKSPEDLPLRQKVVKYPLHAIMEIKEYLIDVASKAGMHWLSTIVPTHHINALIFFFIISNLTIDFFAFFIPLVVFYLSFVSMVICTLKVFQDSKAWENFRTLTDLLLRFEPNLDVEQAEVNFGWNHLEPYIHFLLSVVFVIFSFPLASKDCIPCSELAVISTFFTVTSYMSLSSSAEPYTRRALVTEVAAGLLSLLPTVPVDWRFLKVLGQTFFTVPVGHFIILNVSLPCLLYVYLFYLFFRMAQLRNFKGTYCYLVPYLVCFMWCELSVVILLQSTGLGLVRASIGYFLFLFALPILVAGLALMGTVQFARWFLSLDLTKIMVTTVICGVPLLFRWWTKANFSVMGMVKSLTKSSMVKLILVWLTAILLFCWFYVYRSEGMKVYNSTLTWQQYGFLCGPRAWKETNMARTQILCSHLEGHRVTWTGRFKYVRVTEIDNSAESAINMLPFFLGDWMRCLYGEAYPSCSSGNTSTAEEELCRLKQLAKHPCHIKKFDRYKFEITVGMPFGTNGNRGHEEDDITKDIVLRASSEFKDVLLNLRQGSLIEFSTILEGRLGSKWPVFELKAISCLNCMTQLSPARRHVKIEQDWRSTVHGALKFAFDFFFFPFLSAA	binds	
endogenous CISD2 (mouse brain) (protein, UniProt Q9CQB5 1-135) MVLDSVARIVKVQLPAYLKQLPVPDSITGFARLTVSDWLRLLPFLGVLALLGYLAVRPFFPKKKQQKDSLINLKIQKENPKVVNEINIEDLCLTKAAYCRCWRSKTFPACDGSHNKHNELTGDNVGPLILKKKEV	binds	

From PMC11271478
